Some compounds share one wording; it may come from a single statement.
Assay: Evaluation of coloring compound for color tone (chroma c*)
Type: physicochemical
Details: c* at L*=88, on CLC color copy paper

Row | SMILES | Color tone
1 | CCCCC(CC)CN(CC(CC)CCCC)C(=O)c1ccccc1N=Nc1c(C)c(C#N)c(=O)n(CC)c1O (stereo not shown) [E11, reference compound] | A (c* is 80 or more)
2 | CCCCc1c(N=Nc2ccc(C)cc2C(=O)OCC(CC)CCCC)c(O)[nH]c(=O)c1C#N (stereo not shown) [D6] | A (c* is 80 or more)
3 | CCCCc1ccc(N=Nc2c(O)[nH]c(=O)c(C#N)c2C)cc1 [E1, reference compound] | C (c* is less than 75)
4 | CCCCC(CC)CN(CC(CC)CCCC)C(=O)c1ccccc1N=Nc1c(O)[nH]c(=O)c(C#N)c1-c1ccccc1 (stereo not shown) [D2] | A (c* is 80 or more)
5 | CCCCn1c(O)c(N=Nc2cccc(C)c2)c(C)c(C#N)c1=O [E7, reference compound] | C (c* is less than 75)
6 | CCCCCCCCc1ccc(OC(=O)c2ccccc2N=Nc2c(O)[nH]c(=O)c(C#N)c2C)cc1 [D8] | A (c* is 80 or more)
7 | CCCCn1c(O)c(N=Nc2ccc(Cl)cc2)c(C)c(C#N)c1=O [E2, reference compound] | B (c* is 75 or more and less than 80)
8 | Cc1c(N=Nc2ccccc2C(=O)N(Cc2ccccc2)Cc2ccccc2)c(O)[nH]c(=O)c1C#N [D11] | A (c* is 80 or more)
9 | CCCCc1c(N=Nc2ccccc2C(=O)N2CCC(CCC)CC2)c(O)[nH]c(=O)c1C#N [D16] | A (c* is 80 or more)
10 | CCCCC(CC)CN(CC(CC)CCCC)C(=O)c1ccc(N=Nc2c(C)c(C#N)c(=O)n(CC)c2O)cc1 (stereo not shown) [E6, reference compound] | A (c* is 80 or more)
11 | CCCCC(CC)CN(CC(CC)CCCC)C(=O)c1ccccc1N=Nc1c(C)cc(=O)[nH]c1O (stereo not shown) [D7] | A (c* is 80 or more)
12 | CCCCCCCCCCCCN(CCCCCCCCCCCC)C(=O)c1ccccc1N=Nc1c(O)[nH]c(=O)c(C#N)c1C [D4] | A (c* is 80 or more)
13 | Cc1c(N=Nc2ccccc2C(=O)N(c2ccccc2)c2ccccc2)c(O)[nH]c(=O)c1C#N [D12] | A (c* is 80 or more)
14 | CCCCC(CC)CN(CC(CC)CCCC)C(=O)c1ccccc1/N=N/c1c(O)[nH]c(=O)c(C#N)c1C (stereo not shown) [D1] | A (c* is 80 or more)
15 | CCCCCCN(CCCCCC)C(=O)c1ccccc1N=Nc1c(O)[nH]c(=O)c(C#N)c1C [D3] | A (c* is 80 or more)
16 | CCCCC(CC)CN(CC(CC)CCCC)C(=O)c1ccc(N=Nc2c(O)[nH]c(=O)c(C#N)c2C)cc1 (stereo not shown) [E10, reference compound] | C (c* is less than 75)
17 | CCCCCCCCCCCCN(CCCCCCCCCCCC)C(=O)c1cc(Cl)ccc1N=Nc1c(O)[nH]c(=O)c(C#N)c1C [D5] | A (c* is 80 or more)
18 | CCCCC(CC)CN(CC(CC)CCCC)C(=O)c1cccc(N=Nc2c(O)[nH]c(=O)c(C#N)c2C)c1 (stereo not shown) [E9, reference compound] | A (c* is 80 or more)
19 | Cc1c(N=Nc2ccc(N(C)C)cc2)c(O)n(CCCl)c(=O)c1C#N [E4, reference compound] | C (c* is less than 75)
20 | CCCCc1c(N=Nc2ccc(OC)cc2C(=O)OC(c2ccccc2)c2ccccc2)c(O)[nH]c(=O)c1C#N [D10] | A (c* is 80 or more)
21 | CCCCC(CC)CN(CC(CC)CCCC)C(=O)c1ccccc1N=Nc1c(O)[nH]c(=O)c(C(N)=O)c1C (stereo not shown) [D14] | A (c* is 80 or more)
22 | CCCCc1c(N=Nc2ccccc2C(=O)NCC(CC)CCCC)c(O)[nH]c(=O)c1C#N (stereo not shown) [D15] | B (c* is 75 or more and less than 80)
23 | CCCCn1c(O)c(N=Nc2ccc(C(=O)OC)cc2)c(C)c(C#N)c1=O [E5, reference compound] | B (c* is 75 or more and less than 80)
24 | CCCCn1c(O)c(N=Nc2ccccc2[N+](=O)[O-])c(C)c(C#N)c1=O [E8, reference compound] | C (c* is less than 75)
25 | CCCCC(CC)CNS(=O)(=O)c1ccc(N=Nc2c(C)c(C#N)c(=O)n(CCCC)c2O)cc1 (stereo not shown) [E3, reference compound] | A (c* is 80 or more)
